Results published in publication PMC12774657.
No constants are given. Whether binding was seen depends on the method and setting. Some binding calls cover weakened binding; strength is not graded here. For some assays here: Tags and fused reporters may be left off the sequences shown.

Amino acid sequences for entries named in this document (tags omitted). Residues count along the entry.
UniProt P35869, residues 1-287: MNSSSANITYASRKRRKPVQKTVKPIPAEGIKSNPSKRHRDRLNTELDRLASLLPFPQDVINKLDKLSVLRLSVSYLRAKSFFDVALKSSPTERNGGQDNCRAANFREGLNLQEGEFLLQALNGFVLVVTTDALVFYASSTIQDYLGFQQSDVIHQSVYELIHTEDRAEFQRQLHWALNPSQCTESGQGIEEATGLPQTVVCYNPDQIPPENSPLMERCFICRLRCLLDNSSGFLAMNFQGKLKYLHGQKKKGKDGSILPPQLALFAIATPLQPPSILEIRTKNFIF
UniProt P27540, residues 1-362: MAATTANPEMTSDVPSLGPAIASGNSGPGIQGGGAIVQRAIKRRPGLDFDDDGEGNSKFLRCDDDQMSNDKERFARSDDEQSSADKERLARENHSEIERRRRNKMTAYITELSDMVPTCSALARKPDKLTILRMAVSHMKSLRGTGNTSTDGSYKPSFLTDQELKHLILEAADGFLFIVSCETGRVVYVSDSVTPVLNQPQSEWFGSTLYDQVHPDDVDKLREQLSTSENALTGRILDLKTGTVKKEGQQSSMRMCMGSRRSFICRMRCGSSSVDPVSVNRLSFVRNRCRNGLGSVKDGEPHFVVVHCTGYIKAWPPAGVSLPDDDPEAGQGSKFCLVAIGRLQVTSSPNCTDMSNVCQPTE
UniProt Q61324, residues 1-481: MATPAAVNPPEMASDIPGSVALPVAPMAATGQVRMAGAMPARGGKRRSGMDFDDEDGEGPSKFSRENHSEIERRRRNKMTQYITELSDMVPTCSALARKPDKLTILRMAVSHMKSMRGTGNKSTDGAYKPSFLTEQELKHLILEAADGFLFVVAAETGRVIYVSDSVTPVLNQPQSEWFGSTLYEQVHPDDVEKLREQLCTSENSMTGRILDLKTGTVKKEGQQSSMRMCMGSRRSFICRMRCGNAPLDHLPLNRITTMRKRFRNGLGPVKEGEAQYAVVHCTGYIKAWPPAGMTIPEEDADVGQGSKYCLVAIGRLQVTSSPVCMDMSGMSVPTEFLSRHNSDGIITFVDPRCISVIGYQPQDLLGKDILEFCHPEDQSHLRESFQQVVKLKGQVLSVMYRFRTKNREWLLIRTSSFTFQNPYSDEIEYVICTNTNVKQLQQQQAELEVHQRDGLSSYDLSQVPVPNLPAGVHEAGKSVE

Legend:
[1] = target: 6×His-TEV-hAhR(1–287) (human) (UniProt P35869); assay: co-purification (His-tag affinity, then ion-exchange or heparin and/or size-exclusion chromatography); 6×His-tagged Class I protein and untagged ARNT or ARNT2 co-expressed from one baculovirus (insect cells) or two plasmids (E. coli); His-tag purification in 500 mM NaCl, tag removed by TEV, further chromatography; gives untagged heterodimers
[2] = target: T1, Truncated mNPAS4 (1–329), 6×His-TEV leader (mouse) (UniProt Q8BGD7); assay: as above
T1 sequence: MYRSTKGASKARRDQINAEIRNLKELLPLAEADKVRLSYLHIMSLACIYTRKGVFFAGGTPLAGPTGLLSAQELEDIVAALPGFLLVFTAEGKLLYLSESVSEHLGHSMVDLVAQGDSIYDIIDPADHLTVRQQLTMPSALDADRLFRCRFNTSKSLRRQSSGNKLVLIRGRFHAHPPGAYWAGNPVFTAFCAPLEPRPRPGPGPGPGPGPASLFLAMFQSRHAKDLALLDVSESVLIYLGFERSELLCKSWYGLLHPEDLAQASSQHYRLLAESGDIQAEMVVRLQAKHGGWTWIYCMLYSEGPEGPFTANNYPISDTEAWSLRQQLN

binding [1] | binding [2] | Substance
binds |  | hARNT(1–362) (from UniProt P27540 1-362) (domain or fragment)
 | binds | mARNT2 (1–481), untagged (from UniProt Q61324 1-481) (domain or fragment)
